Structures were worked out from names or drawings and are uncertain.
Tests used:
[1] = biological target: GDP-bound KRAS protein (aa 1-169), containing both G12D and C118A amino acid substitutions (Homo sapiens (Human), UniProt P01116, C118A/G12D); assay: KRAS G12D Coupled Nucleotide Exchange Assay; format: biochemical; settings: read-out: KRAS G12D Coupled Exchange IC50; tested form: TFA
Method: KRAS G12D Coupled Nucleotide Exchange Assay
Following compound pre-incubation, purified SOS protein (aa 564-1049) and GTP (Roche 10106399001) were added to the assay wells and incubated for an additional 30 min. To determine the extent of inhibition of SOS-mediated nucleotide exchange, purified GST-tagged cRAF (aa 1-149), nickel chelate AlphaLISA acceptor beads (PerkinElmer AL108R), and AlphaScreen glutathione donor beads (PerkinElmer 6765302) were added to the assay wells and incubated for 10 minutes. The assay plates were then read on a PerkinElmer EnVision Multilabel Reader, using AlphaScreen® technology, and data were analyzed using a 4-parameter logistic model to calculate IC50 values.

By UniProt entry, the sequences of proteins in these tests, tags left out. Chains listed by the source or under a name are the forms on record and can include a tag or linker. Residues count along the entry.
UniProt P01116, 1-164 with tags or gaps G12D limits assumed: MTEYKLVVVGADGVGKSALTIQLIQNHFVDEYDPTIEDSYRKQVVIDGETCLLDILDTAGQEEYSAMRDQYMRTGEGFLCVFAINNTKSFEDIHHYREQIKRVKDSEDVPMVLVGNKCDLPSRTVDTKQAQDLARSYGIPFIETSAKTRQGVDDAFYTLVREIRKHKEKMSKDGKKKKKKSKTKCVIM
UniProt P01116, 1-164 with tags or gaps C118A/G12D limits assumed: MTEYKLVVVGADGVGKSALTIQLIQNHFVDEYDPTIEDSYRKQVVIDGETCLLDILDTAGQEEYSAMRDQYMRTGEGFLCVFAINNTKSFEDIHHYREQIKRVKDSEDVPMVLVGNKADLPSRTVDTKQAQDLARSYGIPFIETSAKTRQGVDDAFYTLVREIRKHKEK

[2] = biological target: His-tagged KRAS G12D protein (Homo sapiens (Human), UniProt P01116, G12D); assay: KRAS G12D TR-FRET Assay; settings: read-out: KRAS G12D Binding IC50; tested form: TFA
Method: Compounds of interest were prepared in a dose-response titration in DMSO, and 80 nL were added via Labcyte Echo to each well of a 384-well plate (Perkin Elmer 6008280). The His-tagged KRAS G12D protein (Amgen) was diluted to 20 nM in Assay Buffer (20 mM HEPES, pH 7.4, 10 mM MgCl2, 50 mM NaCl, 0.1% BSA, 0.01% Tween-20, 10 μM GDP) and 2 μL was added to the appropriate wells of the 384-well plate. The plate was incubated for 30 minutes at room temperature. Biotinylated KRPep-2d substrate (Amgen) was diluted to 20 nM in Assay Buffer and 2 μL was added to all wells and incubated for 1 hour at room temperature. Detection Reagent (0.4 nM LANCE Eu-W1024 Anti-6×His (Perkin Elmer AD0401), 5 nM streptavidin-d2 (Cisbio 610SADLA)) was prepared in Assay Buffer, then 4 μL was added to the plate and incubated for 1 hour at room temperature. Plates were read using PerkinElmer EnVision (ex: 320 nm, em1: 665 nm, em2: 615 nm) and em1/em2 data was used to generate curve fits using a 4-parameter logistic model to calculate IC50 values.

With Cc1cc2[nH]ncc2c2c1CCCCC(=O)N[C@@H]1CCCN(C1)c1nc(OC[C@@]34CCCN3C[C@H](F)C4)nc3c(F)c-2ncc13 [Example 48, (17R)-30-fluoro-24-(((2R,7aS)-2-fluorotetrahydro-1H-pyrrolo[1,2-a]pyrrol-7a(5H)-yl)methoxy)-9-methyl-5,6,16,21,23,25,29-heptaazahexacyclo[24.3.1.1˜17,21˜.0˜2,10˜.0˜3,7˜.0˜22,27˜]hentriaconta-1(30),2,4,7,9,22,24,26,28-nonaen-15-one 2,2,2-trifluoroacetate] as the compound, how does the IC50 [1] read?
The IC50 was 368 nM.

And the IC50 [2]?
The IC50 was 349 nM.

— US20240294551A1 (AMGEN INC., priority 2022, published 2024)
